Reference: PubChem BioAssay AID1224830 (NIAID, 2016)
In all, the deposit lists about 18,000 reagents; shown is an unselected part. In the full data, about 2,900 (16%) got an active call. 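Calls are made per well; low scores hint the gene aids the LPS response, high scores that it dampens it.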 Repeated entries: four replicate wells of each siRNA pool. Reagent sequences are not shown.

Aim: 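Regulators of TLR4 signalling towards TNF-alpha in macrophage-like cells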 (primary screen)
Cells: human THP-1 monocytic leukaemia cells, TNF dual-luciferase reporter clone, PMA-differentiated to macrophage-like cells
Reagents: siRNA pool against human genes, 50 nM
Time to read-out: LPS for 4 h, given about 3 days after siRNA transfection
Treatment: bacterial LPS (TLR4 ligand), 10 ng/ml
Measured: 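Ratio of firefly to renilla light, scaled to the plate median and expressed as a robust z-score per replicate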
Direction: TNF reporter robust z-score: higher = stronger TNF reporter response to LPS
Rule for the call: 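a well is active when its z-score exceeds 2.8 or falls below -1.5; control wells carry no call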

BLK
- TNF reporter robust z-score: -1.2
- activity call: inactive

BLK
- TNF reporter robust z-score: 1.01
- activity call: inactive

BLK
- TNF reporter robust z-score: -0.09
- activity call: inactive

IP6K2
- TNF reporter robust z-score: 1.11
- activity call: inactive

IP6K2
- TNF reporter robust z-score: 2.68
- activity call: inactive

IP6K2
- TNF reporter robust z-score: 0.85
- activity call: inactive

IP6K2
- TNF reporter robust z-score: 4.18
- activity call: active

LGR4
- TNF reporter robust z-score: 0.05
- activity call: inactive

LGR4
- TNF reporter robust z-score: 0.52
- activity call: inactive

LGR4
- TNF reporter robust z-score: 0.5
- activity call: inactive

LGR4
- TNF reporter robust z-score: 1.33
- activity call: inactive

A run of entries from the list above, as a working copy:
BLK
- TNF reporter robust z-score: 1.01
- activity call: inactive

BLK
- TNF reporter robust z-score: -0.09
- activity call: inactive

IP6K2
- TNF reporter robust z-score: 1.11
- activity call: inactive

IP6K2
- TNF reporter robust z-score: 2.68
- activity call: inactive

The results go on:
ISCA1
- TNF reporter robust z-score: 0.38
- activity call: inactive

ISCA1
- TNF reporter robust z-score: 1.03
- activity call: inactive

ISCA1
- TNF reporter robust z-score: 0
- activity call: inactive

ISCA1
- TNF reporter robust z-score: 0.58
- activity call: inactive

CACNG3
- TNF reporter robust z-score: 0.11
- activity call: inactive

CACNG3
- TNF reporter robust z-score: -0.49
- activity call: inactive

CACNG3
- TNF reporter robust z-score: -0.59
- activity call: inactive

CACNG3
- TNF reporter robust z-score: -0.3
- activity call: inactive

EPS8L2
- TNF reporter robust z-score: -1.07
- activity call: inactive

EPS8L2
- TNF reporter robust z-score: -1.17
- activity call: inactive

EPS8L2
- TNF reporter robust z-score: -0.8
- activity call: inactive

EPS8L2
- TNF reporter robust z-score: -0.71
- activity call: inactive

CYP2J2
- TNF reporter robust z-score: -0.46
- activity call: inactive

CYP2J2
- TNF reporter robust z-score: -0.08
- activity call: inactive

CYP2J2
- TNF reporter robust z-score: -0.24
- activity call: inactive

CYP2J2
- TNF reporter robust z-score: 0.75
- activity call: inactive

GC
- TNF reporter robust z-score: 0.29
- activity call: inactive

GC
- TNF reporter robust z-score: 0.97
- activity call: inactive

GC
- TNF reporter robust z-score: 0.5
- activity call: inactive

GC
- TNF reporter robust z-score: 0.56
- activity call: inactive

POP7
- TNF reporter robust z-score: 1.38
- activity call: inactive

POP7
- TNF reporter robust z-score: 0.23
- activity call: inactive

POP7
- TNF reporter robust z-score: 1.87
- activity call: inactive

POP7
- TNF reporter robust z-score: 1.17
- activity call: inactive
